# Source: PubChem BioAssay AID686937 (Drosophila RNAi Screening Center, 2013)
# Assay: 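Genes whose loss weakens secretory pathway function in fly cells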 (primary screen)
# Cell system: Drosophila S2 cells expressing secreted horseradish peroxidase
# Knock-down reagent: long dsRNA against Drosophila genes
# Time to read-out: about 5.5 days (5 days dsRNA, then 12 h reporter induction)
# Challenge: reporter expression induced after 5 days of dsRNA, read 12 h later; inducer not stated
# Read-out: 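Chemiluminescent measurement of peroxidase in the medium 12 h after reporter induction, following 5 days of dsRNA, given as a z-score per plate; higher means more secretion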
# Reading the numbers: z-score: higher = more reporter secreted into medium
# The screen tested about 23,000 reagents; this is an unselected part of those that have a named target and a result. 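Reduced-secretion tags in replicate 1 do not always agree with the z-scores; no criterion for assigning the tags was given.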 A plus sign joins genes that one reagent is predicted to hit. No sequences are given here. Not stated in the record: the amount of reagent.
The opening 4 records, to show the layout:
gene knocked down,PubChem SID,"z-score, replicate 1","z-score, replicate 2","z-score, replicate 3","z-score, replicate 4","phenotype, replicate 1"
CG12071,SID104194263,-1.6,-1.24,,,reduced secretion
Ho (Heme oxygenase),SID104194731,0.33,0.15,,,
CG5446,SID104182654,-1.12,-0.42,,,
CG18273,SID104197942,0.61,0.47,,,

Results, repeating the preview:
gene knocked down,PubChem SID,"z-score, replicate 1","z-score, replicate 2","z-score, replicate 3","z-score, replicate 4","phenotype, replicate 1"
CG12071,SID104194263,-1.6,-1.24,,,reduced secretion
Ho (Heme oxygenase),SID104194731,0.33,0.15,,,
CG5446,SID104182654,-1.12,-0.42,,,
CG18273,SID104197942,0.61,0.47,,,
CG18273,SID104198297,0.34,0.44,0.16,0.06,
Mer (Merlin),SID104200051,0.41,0.44,,,
Vha36-1 (Vacuolar H[+] ATPase 36kD subunit 1),SID104186890,0.61,0.51,,,
ed (echinoid),SID104180142,0.37,0.48,,,
ed (echinoid),SID104180230,0.33,0.25,,,
ed (echinoid),SID104180231,0.35,0.32,,,
ed (echinoid),SID104180270,0.16,0.3,,,
CG32444,SID104191469,0.36,0.3,,,
CG17272,SID104195003,-0.13,-1.03,,,
CG14302,SID104194573,0.42,0.46,,,
x16 (x16 splicing factor),SID104180752,0.71,0.28,,,
x16 (x16 splicing factor),SID104183430,0.04,0,,,
Scp1 (Sarcoplasmic calcium-binding protein 1),SID104200591,0.15,0.27,,,
Scp1 (Sarcoplasmic calcium-binding protein 1),SID104200595,0.51,0.48,,,
Scp1 (Sarcoplasmic calcium-binding protein 1),SID104200598,0.44,0.11,,,
"Fis1 (Fission, mitochondrial 1)",SID104187564,0.46,0.19,,,
Est-6 (Esterase 6),SID104190954,0.35,0.3,,,
RpL35 (Ribosomal protein L35),SID104198139,-2.2,-3.53,,,reduced secretion
CG14118,SID104189914,0.24,0.12,,,
CG13102 + Rcd-1r,SID104183058,0.38,0.19,,,
fs(1)Yb (female sterile (1) Yb),SID104198569,0.18,0.3,,,
Gem3 (Gemin 3),SID104190936,0.01,0.4,,,
Nse4 (Non-SMC element 4),SID104182031,-0.53,0.32,,,
Hrd3 (HMG-coA reductase degradation 3),SID104193948,-0.06,0.19,,,
SIFa (SIFamide),SID104184272,0.26,0.19,,,
CG13601,SID104194396,0.18,-0.32,,,
CG5577,SID104190311,0.27,0.26,,,
beta'COP (Coat Protein (coatomer) beta'),SID104183284,-6.57,-5.36,,,reduced secretion
CG31741,SID104182679,0.1,0.05,,,
